± gives the standard deviation of the averaged measurements. The list shows a part of the results. Single values are uncertain, as repeats are few or missing.
System: RAW 264.7 macrophages infected with S. aureus JE2-lux
Experiment: host macrophage viability (CellTiter-Fluor) relative to DMSO vehicle; higher = more viable host cells
Conditions: 10 µM; treatment time 4 h; gentamicin 50 µg/ml

Row | Compound | host macrophage viability [%]
1 | CCC(=O)Nc1c(-c2ccccc2)c2cc(Br)ccc2[nH]c1=O | 124
2 | Cc1ccc(S(=O)(=O)NC(=N)NCCc2c(C)[nH]c3ccc(C)cc23)cc1 | 126
3 | Cc1ccc(Nc2c(C(=O)NCc3ccco3)cnc3c2c(C)nn3C)cc1 | 119
4 | C=CCOc1ccc(C2CC(=O)Nc3c2cnn3-c2nc3ccccc3s2)cc1OCC (centres undefined) | 103
5 | Cc1nc2c(c(=O)n1CC(=O)Nc1ccc(F)cc1)CCN(Cc1ccccc1)C2 | 98.2
6 | O=C1Nc2ccccc2/C1=C1/SC(=S)N(c2ccccc2F)C1=O | 120
7 | Fc1ccc2ncc3c(-c4ccccc4)n[nH]c3c2c1 | 126
8 | CCc1ccc(NC(=O)CSc2nc(-c3ccc(C(C)C)cc3)no2)cc1 | 105
9 | Cc1c(NS(=O)(=O)c2ccc(Cl)cc2)c(-n2cnnc2)nn1C | 108
10 | COc1ccccc1NC(=O)CSc1nnc2cc(C)c3ccccc3n12 | 123
11 | COc1ccc(Cl)cc1NC(=O)c1cccn(OCc2ccccc2F)c1=O | 128
12 | COCCNC(=O)CSc1nc(-c2ccccc2)nc2ccc(Cl)cc12 | 101
13 | Cc1ccc(-c2cc(C(F)(F)F)n3nc(C(=O)Nc4ccc5c(c4)OCO5)nc3n2)cc1 | 136
14 | Cc1ccc(NC(=O)c2cc3c(CO)cnc(C)c3o/c2=N\c2cccc3ccccc23)cc1C | 111
15 | CC1(C)Oc2ccc(NC(=O)COc3ccc(CN4CCCC4)cc3)cc2O1 | 106
16 | Cc1cc2c(=O)n(CC(=O)N3CCC(O)(c4ccccc4C)CC3)cnc2s1 | 89.7
17 | COc1cccc(C(=O)Nc2cccc(-c3nc4ncccc4o3)c2)c1 | 109
18 | Cc1nc(Nc2ccc(NC(=O)Nc3cccc(C(F)(F)F)c3)cc2)cc(N2CCOCC2)n1 | 117
19 | CC(C)(C)c1nc(SCC(=O)Nc2ccc3c(c2)OCO3)c2ccccc2n1 | 116
20 | Cc1ccc(F)cc1Nc1ncnc(N)c1[N+](=O)[O-] | 114
21 | CC(C)c1ccc2nc3sc(C(=O)Nc4nccs4)c(N)c3cc2c1 | 130
22 | Cc1ccc(C(=O)Nc2ccc3c(c2)C(=O)NC3=O)cc1C | 130
23 | O=C(COc1ccccc1)c1ccc(O)c(O)c1O | 97.8 ± 2.2
24 | CC(NC(=O)c1ncoc1-c1ccc(F)cc1)C(=O)N1CCCCC1 (centres undefined) | 145
25 | COC(=O)C1=C(C)N(Cc2ccccc2)C(=O)NC1c1ccccc1F (centres undefined) | 105
26 | Cc1ccc2nc(NC(=O)CSc3nc(=O)n(N4CCN(C)CC4)c4c3CCCC4)sc2c1 | 116
27 | COc1ccc(NC(=O)CNCCO)c(OC)c1 | 112
28 | Cc1cc2c(o1)CCc1sc(N(C)C(=O)c3cc(C(C)(C)C)nn3C)nc1-2 | 133
29 | CCc1ccc(OCC(=O)Nc2noc(-c3ccc(C)cc3)n2)cc1 | 114

Some of the entries above in a different format.
Row	Compound	host macrophage viability [%]
14	Cc1ccc(NC(=O)c2cc3c(CO)cnc(C)c3o/c2=N\c2cccc3ccccc23)cc1C	111
22	Cc1ccc(C(=O)Nc2ccc3c(c2)C(=O)NC3=O)cc1C	130
